Source: paper PMC12863303

The chains behind the UniProt entries cited, without tags or fusion partners.
UniProt O00567: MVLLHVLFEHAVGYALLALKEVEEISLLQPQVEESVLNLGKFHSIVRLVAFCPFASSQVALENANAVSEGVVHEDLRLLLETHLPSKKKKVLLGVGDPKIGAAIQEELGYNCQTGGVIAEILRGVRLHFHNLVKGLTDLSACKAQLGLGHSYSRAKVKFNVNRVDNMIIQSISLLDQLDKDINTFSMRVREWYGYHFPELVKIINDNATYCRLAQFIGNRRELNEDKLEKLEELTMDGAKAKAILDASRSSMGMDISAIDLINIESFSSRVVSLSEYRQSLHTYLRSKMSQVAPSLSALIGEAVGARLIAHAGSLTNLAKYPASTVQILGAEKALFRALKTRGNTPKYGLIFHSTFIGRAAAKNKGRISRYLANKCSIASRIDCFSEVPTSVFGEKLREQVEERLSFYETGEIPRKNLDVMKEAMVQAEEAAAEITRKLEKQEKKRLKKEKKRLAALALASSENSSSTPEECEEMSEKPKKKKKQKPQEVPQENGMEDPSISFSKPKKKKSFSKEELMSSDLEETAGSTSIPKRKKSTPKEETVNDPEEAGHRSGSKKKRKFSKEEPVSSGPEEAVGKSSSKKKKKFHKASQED

Target: T1, TurboID–V5–NONO (UniProt Q15233)
T1 sequence: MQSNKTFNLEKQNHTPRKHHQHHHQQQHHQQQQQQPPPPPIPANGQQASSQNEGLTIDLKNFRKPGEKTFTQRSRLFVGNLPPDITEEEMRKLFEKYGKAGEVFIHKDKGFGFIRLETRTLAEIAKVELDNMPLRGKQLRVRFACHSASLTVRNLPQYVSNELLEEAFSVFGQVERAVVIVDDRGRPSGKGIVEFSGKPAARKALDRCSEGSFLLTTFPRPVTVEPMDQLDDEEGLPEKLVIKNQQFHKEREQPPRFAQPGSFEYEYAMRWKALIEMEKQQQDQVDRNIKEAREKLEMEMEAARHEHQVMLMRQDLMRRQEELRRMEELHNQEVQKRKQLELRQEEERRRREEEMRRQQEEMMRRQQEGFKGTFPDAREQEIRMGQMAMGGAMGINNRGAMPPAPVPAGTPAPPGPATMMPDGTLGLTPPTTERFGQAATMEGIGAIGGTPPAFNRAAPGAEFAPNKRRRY
Assay: proximity labelling; TurboID–V5–NONO in MCF7 wild-type and NEAT1-knockout cells, DOX 24 h; control, SFN (20 µM) or HBSS starvation for 6 h; biotin 100 µM for the last 30 min; nuclear extracts, streptavidin magnetic beads, TMT LC-MS/MS; proteins enriched under stress against control cells

## Nucleolar protein 56 (NOP56) (from UniProt O00567 1-594)
  binding: binds

These are yes or no findings as the source states them, for the method shown. Binding seen in cells or lysates may run through a third protein. These calls come from enrichment with a bait or labelling near it, and not all partners need be listed. Tags and fused reporters may be left off the sequences shown.
